No constants are given. Whether binding was seen depends on the method and setting. Some binding calls cover weakened binding; strength is not graded here.
Key:
[1] = molecular target: glutathione-S-transferase (GST)-Cbfβ fusion protein [GST: P08515]; experiment: in vitro binding assay, GST-Cbfβ on glutathione-agarose beads, SDS-PAGE and autoradiography
[2] = molecular target: histidine-tagged Cbfβ (UniProt Q08024); experiment: EMSA (DNA-binding assays)
[3] = molecular target: histidine-tagged Cbfβ (UniProt Q08024); experiment: EMSA with labeled OSE2 oligonucleotide, supershift on addition of Cbfβ
[4] = molecular target: histidine-tagged Cbfβ (UniProt Q08024); experiment: EMSA with labeled OSE2 oligonucleotide, with Cbfβ (FIG. 18A)

Chains of the proteins cited; added tags and fusions are not shown. Lines headed by an entry give the natural chain unless they say otherwise; changes in a name come on top. A line that says so, or that is headed by a name, gives the form on record, which may keep a tag or linker.
histidine-tagged Cbfβ (Q08024, form named): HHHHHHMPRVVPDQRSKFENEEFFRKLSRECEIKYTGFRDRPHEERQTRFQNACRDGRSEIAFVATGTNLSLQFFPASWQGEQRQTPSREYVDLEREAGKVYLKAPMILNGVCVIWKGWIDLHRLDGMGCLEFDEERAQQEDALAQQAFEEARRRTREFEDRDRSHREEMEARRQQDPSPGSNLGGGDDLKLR
UniProt Q03347: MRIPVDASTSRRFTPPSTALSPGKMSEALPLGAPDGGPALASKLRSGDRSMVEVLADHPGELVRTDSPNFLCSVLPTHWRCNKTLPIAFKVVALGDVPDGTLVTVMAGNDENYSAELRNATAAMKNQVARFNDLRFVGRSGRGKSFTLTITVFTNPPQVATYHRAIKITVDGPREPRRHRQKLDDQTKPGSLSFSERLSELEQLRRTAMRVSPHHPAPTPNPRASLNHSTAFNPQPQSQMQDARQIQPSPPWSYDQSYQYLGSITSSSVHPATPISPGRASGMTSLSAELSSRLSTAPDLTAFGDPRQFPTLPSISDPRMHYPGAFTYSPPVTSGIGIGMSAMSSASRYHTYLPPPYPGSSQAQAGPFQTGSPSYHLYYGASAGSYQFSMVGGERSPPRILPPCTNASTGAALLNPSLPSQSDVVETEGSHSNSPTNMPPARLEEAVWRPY
UniProt Q08775: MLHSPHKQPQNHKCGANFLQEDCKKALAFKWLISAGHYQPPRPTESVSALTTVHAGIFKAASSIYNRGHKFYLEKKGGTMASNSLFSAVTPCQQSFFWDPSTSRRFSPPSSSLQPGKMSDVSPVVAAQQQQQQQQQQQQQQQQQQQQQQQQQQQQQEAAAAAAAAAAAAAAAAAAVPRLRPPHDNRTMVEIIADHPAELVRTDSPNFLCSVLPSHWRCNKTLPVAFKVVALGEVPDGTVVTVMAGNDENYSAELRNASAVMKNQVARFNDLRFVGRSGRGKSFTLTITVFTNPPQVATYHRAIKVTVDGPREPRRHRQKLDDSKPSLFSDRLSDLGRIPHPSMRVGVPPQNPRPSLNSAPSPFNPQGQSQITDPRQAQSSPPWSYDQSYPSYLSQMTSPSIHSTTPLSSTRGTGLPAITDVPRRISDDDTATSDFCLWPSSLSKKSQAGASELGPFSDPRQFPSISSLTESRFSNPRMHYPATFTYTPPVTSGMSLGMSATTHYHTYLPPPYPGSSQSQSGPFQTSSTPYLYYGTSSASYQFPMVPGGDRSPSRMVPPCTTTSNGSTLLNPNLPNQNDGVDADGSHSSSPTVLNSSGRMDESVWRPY

Row | Substance | binding [1] | binding [2] | binding [3] | binding [4]
1 | in vitro translated ^35S-labeled Cbfa2 (from UniProt Q03347 1-451) | binds |  |  | 
2 | His-Cbfa2 protein (from UniProt Q03347 1-451) |  | binds | binds | binds
3 | Δ.runt.PST deletion mutant containing only the runt and PST domains of Osf2 (His-tagged) (from UniProt Q08775 188-607) |  |  | binds | binds
